PubChem BioAssay AID504791 | Drosophila RNAi Screening Center | 2011

- Aim: 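Genes whose knock-down strengthens or weakens small-RNA reporter silencing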 (primary screen)
- Cell system: Drosophila S2-derived reporter cells
- Reagent: long dsRNA against Drosophila genes, about 150-250 ng dsRNA per well (siRNA assay); about 80-120 ng (miRNA assay)
- Time to read-out: about 5 days (siRNA assay); about 4 days (miRNA assay)
- Treatment: copper sulfate induction of reporters: 25 µM (siRNA assay); 200 mM stated (miRNA assay), 1-2 days before reading
- Measurement: 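Per-well ratio of Renilla over firefly light, expressed relative to that plate's average ratio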
- Reading the numbers: siRNA reporter hit score: higher = 3 marks a strong hit with raised ratio; -3 a strong hit with lowered ratio
- Rule for the call: 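a well was a first-pass pick when its plate-scaled ratio rose above 1.5 (siRNA assay) or 1.6 (miRNA assay), or dropped below 0.6; a gene counted only if two separate dsRNAs agreed on retest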
In all, the deposit lists about 23,000 reagents; this is a random part of those with a known target gene and a result. Over the whole deposit, 199 (0.86%) were called active. 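Plate-scaled ratios behind the calls are not deposited; printed light signals are raw; many rows marked increased or decreased are still called inactive.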 Entries without a mark were called inactive.

| Target gene | PubChem SID | siRNA reporter hit score | miRNA reporter change | stable assay Renilla, run 1 (luminescence) | stable assay firefly, run 1 (luminescence) |
| --- | --- | --- | --- | --- | --- |
| CG4830 | SID104195449 | – | – | 5043 | 3.08e5 |
| CG12608 | SID104199264 | – | – | 9595 | 5.69e5 |
| CG2790 | SID104183837 | – | – | 43229 | 8.82e5 |
| CG13810 | SID104188136 | – | – | 5762 | 3.28e5 |
| CG13810 | SID104202197 | – | – | 4787 | 3.90e5 |
| Smg5 (Smg5 nonsense mediated mRNA decay factor) | SID104182916 | – | – | 9647 | 1.27e6 |
| Ptip (PAX transcription activation domain interacting protein) | SID104190452 | – | – | 6510 | 4.47e5 |
| Ptip (PAX transcription activation domain interacting protein) | SID104190840 | – | – | 4636 | 2.74e5 |
| HUWE1 | SID104199881 | – | – | 5511 | 4.23e5 |
| CG12609 | SID104199265 | – | – | 6854 | 4.74e5 |
| CG3906 | SID104184223 | – | – | 2.70e5 | 3.32e5 |
| sprt (sprite) | SID104187115 | – | – | 8345 | 5.14e5 |
| CG10226 | SID104189507 | – | – | 7438 | 3.78e5 |
| loopin-1 | SID104186680 | – | – | 8858 | 3.12e5 |
| obst-H (obstructor-H) | SID104190727 | – | – | 6399 | 3.68e5 |
| obst-H (obstructor-H) | SID104190732 | – | – | 6296 | 3.71e5 |
| CG10175 | SID104193420 | – | – | 6743 | 4.14e5 |
| CG10175 | SID104193992 | – | – | 6940 | 3.23e5 |
| CG10175 | SID104201586 | – | – | 10153 | 8.00e5 |
| l(2)05287 (lethal (2) 05287) | SID104181943 | – | – | 8002 | 8.13e5 |
| l(2)05287 (lethal (2) 05287) | SID104181944 | – | – | 6044 | 3.74e5 |
| Mettl3 (Methyltransferase like 3) | SID104195713 | – | – | 6718 | 3.18e5 |
| RpS16 (Ribosomal protein S16) | SID104184234 | – | – | 5882 | 3.43e5 |
| CG31872 | SID104182360 | – | – | 6610 | 4.66e5 |
| CG31872 | SID104182364 | – | – | 6135 | 3.75e5 |
| CG17005 | SID104182348 | – | – | 7556 | 4.41e5 |
| Dsp1 (Dorsal switch protein 1) | SID104200107 | – | reporter ratio raised past the hit cutoff | 4000 | 2.12e5 |
| Dsp1 (Dorsal switch protein 1) | SID104202435 | – | – | 4975 | 3.38e5 |
| Phm (Peptidylglycine-alpha-hydroxylating monooxygenase) | SID104184431 | – | – | 7465 | 1.07e6 |

A stretch taken from the entries so far, for reference:
| Target gene | PubChem SID | siRNA reporter hit score | miRNA reporter change | stable assay Renilla, run 1 (luminescence) | stable assay firefly, run 1 (luminescence) |
| --- | --- | --- | --- | --- | --- |
| loopin-1 | SID104186680 | – | – | 8858 | 3.12e5 |
| obst-H (obstructor-H) | SID104190727 | – | – | 6399 | 3.68e5 |
| obst-H (obstructor-H) | SID104190732 | – | – | 6296 | 3.71e5 |
| CG10175 | SID104193420 | – | – | 6743 | 4.14e5 |
| CG10175 | SID104193992 | – | – | 6940 | 3.23e5 |
| CG10175 | SID104201586 | – | – | 10153 | 8.00e5 |
| l(2)05287 (lethal (2) 05287) | SID104181943 | – | – | 8002 | 8.13e5 |
| l(2)05287 (lethal (2) 05287) | SID104181944 | – | – | 6044 | 3.74e5 |
| Mettl3 (Methyltransferase like 3) | SID104195713 | – | – | 6718 | 3.18e5 |
| RpS16 (Ribosomal protein S16) | SID104184234 | – | – | 5882 | 3.43e5 |
| CG31872 | SID104182360 | – | – | 6610 | 4.66e5 |
| CG31872 | SID104182364 | – | – | 6135 | 3.75e5 |
| CG17005 | SID104182348 | – | – | 7556 | 4.41e5 |

Continued.
| Target gene | PubChem SID | siRNA reporter hit score | miRNA reporter change | stable assay Renilla, run 1 (luminescence) | stable assay firefly, run 1 (luminescence) |
| --- | --- | --- | --- | --- | --- |
| Gr21a (Gustatory receptor 21a) | SID104180158 | – | – | 9054 | 4.11e5 |
| eIF4H1 (eukaryotic translation initiation factor 4H1) | SID104200068 | – | – | 5788 | 5.30e5 |
| CG32199 | SID104189782 | – | – | 8239 | 3.94e5 |
| PolZ1 (DNA polymerase zeta subunit 1) | SID104186592 | – | – | 8894 | 5.00e5 |
| Ankrd49 | SID104181686 | – | – | 7027 | 3.36e5 |
| CG2145 | SID104199627 | – | – | 8707 | 4.93e5 |
| RunxA (Runt related A) | SID104200192 | – | – | 3731 | 3.20e5 |
| RunxA (Runt related A) | SID104200290 | – | – | 5371 | 3.03e5 |
| RunxA (Runt related A) | SID104200316 | – | – | 3932 | 3.95e5 |
| RunxA (Runt related A) | SID104201539 | – | – | 9542 | 4.84e5 |
| CG17010 | SID104182351 | – | – | 45778 | 2.82e5 |
| CG2218 | SID104195220 | – | – | 7219 | 3.85e5 |
| ph-p (polyhomeotic proximal) | SID104198612 | – | – | 6054 | 4.73e5 |
| Klp67A (Kinesin-like protein at 67A) | SID104190997 | – | – | 7610 | 5.73e5 |
| Mvd (Mevalonate diphosphate decarboxylase) | SID104199888 | – | – | 6823 | 3.01e5 |
| CG12607 | SID104188079 | – | – | 6238 | 6.19e5 |
| polyph (polyphemus) | SID104186046 | – | – | 6287 | 3.49e5 |
| Jra (Jun-related antigen) | SID104187239 | – | – | 9527 | 5.30e5 |
| Gcn5 (Gcn5 acetyltransferase) | SID104191040 | – | – | 8953 | 5.33e5 |
| CG5535 | SID104190306 | – | – | 8787 | 3.33e5 |
| Rh50 | SID104188484 | – | – | 7805 | 3.88e5 |
| CG31550 | SID104191989 | – | – | 6064 | 4.23e5 |
| CG31550 | SID104191990 | – | – | 7562 | 5.99e5 |
| CG11741 | SID104194159 | – | – | 6598 | 3.56e5 |
| RtcB (RtcB RNA ligase) | SID104183072 | – | – | 8599 | 4.55e5 |
| CG9084 | SID104187127 | – | – | 6399 | 4.96e5 |
| Ugt36D1 (UDP-glycosyltransferase family 36 member D1) | SID104182392 | – | – | 9551 | 1.66e6 |
| Ppa (Partner of paired) | SID104184390 | – | – | 5343 | 3.94e5 |
| Hayan | SID104199781 | – | – | 2755 | 2.84e5 |
| Hayan | SID104201760 | – | – | 9215 | 5.86e5 |
| Pde6 (Phosphodiesterase 6) | SID104196193 | – | – | 9808 | 5.73e5 |
| Pde6 (Phosphodiesterase 6) | SID104196194 | – | – | 6411 | 3.92e5 |
| Pde6 (Phosphodiesterase 6) | SID104196195 | – | – | 6851 | 3.13e5 |
| Sou (Souji) | SID104184148 | – | – | 6878 | 3.67e5 |
| comm2 | SID104189673 | – | – | 7182 | 3.60e5 |
| comm2 | SID104190669 | – | – | 7435 | 4.33e5 |
| IntS2 (Integrator 2) | SID104199886 | -3 | – | 12969 | 9.36e5 |
| CG15084 | SID104186307 | – | – | 5216 | 4.54e5 |
| CG15084 | SID104201165 | – | – | 8962 | 4.82e5 |
| Prosap | SID104186174 | – | – | 5771 | 3.13e5 |
| Prosap | SID104186873 | – | – | 8510 | 4.34e5 |
| BaraC (Baramicin C) | SID104183677 | – | – | 5646 | 3.57e5 |
| CG30428 | SID104183833 | – | – | 6631 | 4.15e5 |
| mri (mrityu) | SID104188051 | – | – | 8391 | 2.45e5 |
| CG14868 | SID104194783 | – | – | 4319 | 4.00e5 |
| Ugt36F1 (UDP-glycosyltransferase family 36 member F1) | SID104182393 | – | – | 6666 | 3.60e5 |
| CG9861 | SID104184368 | – | – | 13503 | 1.57e6 |
| CG2519 | SID104192104 | – | – | 7067 | 4.15e5 |
| ppk16 (pickpocket 16) | SID104182528 | – | – | 7892 | 3.64e5 |
| sals (sarcomere length short) | SID104194717 | – | – | 9167 | 6.03e5 |
| sals (sarcomere length short) | SID104195905 | – | – | 7127 | 3.91e5 |
| CG3502 | SID104184173 | – | – | 39664 | 8.26e5 |
| CG34169 | SID104181371 | – | – | 5403 | 4.61e5 |
| hay (haywire) | SID104191146 | – | – | 5690 | 3.26e5 |
